From article doi:10.1101/2024.12.03.626411
These are yes or no findings as the source states them, for the method shown.

Protein sequences, listed by entry. Tags and fused reporters are not part of them. Residues count along the entry.
UniProt Q04206, residues 19-325: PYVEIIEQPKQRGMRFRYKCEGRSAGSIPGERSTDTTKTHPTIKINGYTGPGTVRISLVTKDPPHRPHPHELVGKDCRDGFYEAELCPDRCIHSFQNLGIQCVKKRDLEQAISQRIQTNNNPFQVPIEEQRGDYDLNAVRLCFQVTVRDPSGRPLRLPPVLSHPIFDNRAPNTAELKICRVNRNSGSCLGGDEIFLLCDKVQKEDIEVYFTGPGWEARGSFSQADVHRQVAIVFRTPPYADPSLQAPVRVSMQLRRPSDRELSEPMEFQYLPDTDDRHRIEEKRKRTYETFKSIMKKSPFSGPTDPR

Assays:
[1] = target: P65 Rel Homology Region (P65RHR) (UniProt Q04206); assay: SEC; P65RHR/DNA complex (20 μM) incubated with 40 μM Fe(III)-pirin for 1 hour at room temperature; Superdex 200 10/300 GL; 25 mM Tris HCl pH 7.5, 50 mM NaCl; fractions read by Coomassie staining (p65) and Western blot (pirin); both purified
[2] = target: P65 Rel Homology Region (P65RHR) (UniProt Q04206); assay: fluorescence polarisation; 5 nM FAM-labeled IgκB DNA with p65 from 3 nM to 4 μM, with or without 500 nM Fe(III)-pirin, 1 hour at room temperature; reads p65 binding to DNA, pirin's effect on it; both purified
[3] = target: P65 Rel Homology Region (P65RHR) (UniProt Q04206); assay: SPR; P65RHR bound to biotinylated IgκB DNA on an SPR chip; p65 alone (50 nM) against p65 with pirin (12.5 – 200 nM); both purified

B1: Fe(III)-pirin (protein, UniProt O00625 1-290)
chain: MGSSKKVTLSVLSREQSEGVGARVRRSIGRPELKNLDPFLLFDEFKGGRPGGFPDHPHRGFETVSYLLEGGSMAHEDFCGHTGKMNPGDLQWMTAGRGILHAEMPCSEEPAHGLQLWVNLRSSEKMVEPQYQELKSEEIPKPSKDGVTVAVISGEALGIKSKVYTRTPTLYLDFKLDPGAKHSQPIPKGWTSFIYTISGDVYIGPDDAQQKIEPHHTAVLGEGDSVQVENKDPKRSHFVLIAGEPLREPVIQHGPFVMNTNEEISQAILDFRNAKNGFERAKTWKSKIGN
**Q.** Which results are given for B1?
**A.** binding [1]: no binding (tested: 40 μM); binding [2]: no binding (tested: 500 nM); binding [3]: no binding (tested: 12.5 – 200 nM)
